This passage reports binding results from PMC2996326, “LaeA Control of Velvet Family Regulatory Proteins for Light-Dependent Development and Fungal Cell-Type Specificity” (PLoS Genetics, 2010).

Chains of the proteins cited; added tags and fusions are not shown. Lines headed by an entry give the natural chain unless they say otherwise; changes in a name come on top.
UniProt C8VTS4: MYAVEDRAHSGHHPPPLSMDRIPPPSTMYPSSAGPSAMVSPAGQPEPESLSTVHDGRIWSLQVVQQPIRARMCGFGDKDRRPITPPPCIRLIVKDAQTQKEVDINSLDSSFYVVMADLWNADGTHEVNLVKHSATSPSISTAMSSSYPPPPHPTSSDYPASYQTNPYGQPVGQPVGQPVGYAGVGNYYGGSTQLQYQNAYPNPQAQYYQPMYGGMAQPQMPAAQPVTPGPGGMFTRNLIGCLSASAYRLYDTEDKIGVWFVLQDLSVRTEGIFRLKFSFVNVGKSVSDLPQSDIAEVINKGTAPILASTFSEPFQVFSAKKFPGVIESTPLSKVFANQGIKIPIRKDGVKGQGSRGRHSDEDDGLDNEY
UniProt C8VQG9: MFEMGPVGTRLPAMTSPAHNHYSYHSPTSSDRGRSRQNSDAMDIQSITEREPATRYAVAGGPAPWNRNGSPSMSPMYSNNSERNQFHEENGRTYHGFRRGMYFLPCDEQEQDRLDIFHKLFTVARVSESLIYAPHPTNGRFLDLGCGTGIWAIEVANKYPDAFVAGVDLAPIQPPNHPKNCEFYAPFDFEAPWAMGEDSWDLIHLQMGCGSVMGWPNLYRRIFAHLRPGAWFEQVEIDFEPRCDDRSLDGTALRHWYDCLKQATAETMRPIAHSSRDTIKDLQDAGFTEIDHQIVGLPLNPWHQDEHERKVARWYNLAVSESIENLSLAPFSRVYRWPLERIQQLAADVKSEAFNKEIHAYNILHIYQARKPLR
UniProt G5EB89: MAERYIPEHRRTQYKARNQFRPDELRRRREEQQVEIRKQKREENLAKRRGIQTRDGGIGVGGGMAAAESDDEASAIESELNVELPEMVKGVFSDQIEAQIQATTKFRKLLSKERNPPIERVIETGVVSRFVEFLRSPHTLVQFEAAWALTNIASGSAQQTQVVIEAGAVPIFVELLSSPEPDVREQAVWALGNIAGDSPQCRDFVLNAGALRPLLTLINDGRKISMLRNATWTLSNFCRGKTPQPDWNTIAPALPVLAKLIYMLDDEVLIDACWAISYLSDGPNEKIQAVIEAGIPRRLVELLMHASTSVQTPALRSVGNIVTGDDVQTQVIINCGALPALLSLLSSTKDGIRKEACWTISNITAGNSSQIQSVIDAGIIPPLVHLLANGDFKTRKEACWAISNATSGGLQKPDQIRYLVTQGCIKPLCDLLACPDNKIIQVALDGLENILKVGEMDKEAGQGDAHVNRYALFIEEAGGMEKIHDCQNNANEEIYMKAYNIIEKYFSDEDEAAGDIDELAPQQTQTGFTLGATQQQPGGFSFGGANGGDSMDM

Results are given in words; binding and its absence hold for the method and conditions named. In cells and extracts the contact can be indirect. These calls come from enrichment with a bait or labelling near it, and not all partners need be listed. For part of these data: A no says only that the protein was not detected with the bait.

What all share (experiment): affinity purification with mass spectrometry; tandem affinity purification (TAP) of the cTAP-tagged bait from A. nidulans protein crude extracts, cultures 12 h after induction on solid medium in the light or in the dark; wild type and laeAΔ strains; bands identified by LC-MS/MS
In assay [1] the target is T1, VosA::cTAP (Aspergillus nidulans) (UniProt Q5BBX1).
T1 sequence: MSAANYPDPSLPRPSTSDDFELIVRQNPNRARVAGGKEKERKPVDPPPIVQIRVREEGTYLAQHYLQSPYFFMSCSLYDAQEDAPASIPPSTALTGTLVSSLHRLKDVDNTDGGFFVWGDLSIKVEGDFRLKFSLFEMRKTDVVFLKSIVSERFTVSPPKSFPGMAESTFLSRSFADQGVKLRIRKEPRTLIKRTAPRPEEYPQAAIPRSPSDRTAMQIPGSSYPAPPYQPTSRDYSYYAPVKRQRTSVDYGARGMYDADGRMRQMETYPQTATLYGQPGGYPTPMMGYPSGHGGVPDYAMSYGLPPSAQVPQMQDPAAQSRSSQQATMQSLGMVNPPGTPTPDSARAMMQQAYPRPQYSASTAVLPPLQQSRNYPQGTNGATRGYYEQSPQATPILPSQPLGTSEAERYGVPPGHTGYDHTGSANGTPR

Assay [2] concerns the target T2, VeA::cTAP (Aspergillus nidulans) (UniProt C8VTV4).
T2 sequence: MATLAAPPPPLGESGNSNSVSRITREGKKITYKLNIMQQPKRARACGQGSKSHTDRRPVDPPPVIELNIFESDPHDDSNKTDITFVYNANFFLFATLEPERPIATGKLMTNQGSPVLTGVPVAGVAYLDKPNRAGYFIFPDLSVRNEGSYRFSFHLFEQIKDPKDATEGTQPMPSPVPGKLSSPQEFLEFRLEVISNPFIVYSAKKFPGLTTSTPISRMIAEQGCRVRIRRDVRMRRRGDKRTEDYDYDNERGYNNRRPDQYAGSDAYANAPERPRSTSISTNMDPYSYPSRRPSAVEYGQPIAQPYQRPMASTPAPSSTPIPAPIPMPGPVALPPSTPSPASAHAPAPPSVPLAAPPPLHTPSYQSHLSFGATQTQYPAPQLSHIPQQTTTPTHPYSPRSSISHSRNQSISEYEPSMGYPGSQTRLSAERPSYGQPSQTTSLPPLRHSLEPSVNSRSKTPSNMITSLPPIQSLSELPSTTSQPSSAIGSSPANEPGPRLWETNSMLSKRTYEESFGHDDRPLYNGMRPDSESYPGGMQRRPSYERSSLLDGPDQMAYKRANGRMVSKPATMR

Assay [3] addresses VelB::cTAP (Aspergillus nidulans) (UniProt C8VTS4).

Regarding LaeA (from UniProt C8VQG9 1-374), in assay [1], the binding entry is reported as “no binding”.
For “VelB (velvet-like B) (from UniProt C8VTS4 1-369)”, the binding entry in assay [2] was “binds”.
As for α-importin KapA (from UniProt G5EB89), the binding entry is recorded as “binds” in assay [2], “binds” in assay [3] and “no binding” in assay [1].

B1: VeA (velvet A) (protein, UniProt C8VTV4 1-573)
chain: MATLAAPPPPLGESGNSNSVSRITREGKKITYKLNIMQQPKRARACGQGSKSHTDRRPVDPPPVIELNIFESDPHDDSNKTDITFVYNANFFLFATLEPERPIATGKLMTNQGSPVLTGVPVAGVAYLDKPNRAGYFIFPDLSVRNEGSYRFSFHLFEQIKDPKDATEGTQPMPSPVPGKLSSPQEFLEFRLEVISNPFIVYSAKKFPGLTTSTPISRMIAEQGCRVRIRRDVRMRRRGDKRTEDYDYDNERGYNNRRPDQYAGSDAYANAPERPRSTSISTNMDPYSYPSRRPSAVEYGQPIAQPYQRPMASTPAPSSTPIPAPIPMPGPVALPPSTPSPASAHAPAPPSVPLAAPPPLHTPSYQSHLSFGATQTQYPAPQLSHIPQQTTTPTHPYSPRSSISHSRNQSISEYEPSMGYPGSQTRLSAERPSYGQPSQTTSLPPLRHSLEPSVNSRSKTPSNMITSLPPIQSLSELPSTTSQPSSAIGSSPANEPGPRLWETNSMLSKRTYEESFGHDDRPLYNGMRPDSESYPGGMQRRPSYERSSLLDGPDQMAYKRANGRMVSKPATMR
As to B1, the binding entry in assay [3] was “binds”.
